{
  "source": "patent US6077869A",
  "about": "“Aryl phenylhydrazides as selective COX-2 inhibitors for treatment of inflammation” (Ortho-McNeil Pharmaceutical, Inc., priority 1999, dated 2000)",
  "system": "cyclooxygenase 2 (COX-2)",
  "assay": "Procedure I: ability of the compounds to inhibit cyclooxygenase 2 (6217/6218)",
  "type": "biochemical, Sheep",
  "settings": "10 µM",
  "note": "The name of at least one read-out is uncertain.",
  "data": [
    {"smiles": "O=C(NNc1ccccc1)c1ccccc1", "note": "[Example 2]", "values": [
      {"measurement": "6217 (COX-2) Wh Cell 1% @ 10?M", "result": 54, "unit": "%"}
    ]}
  ]
}
